This data set can be described thus: general procedure: Fmoc solid-phase peptide synthesis; Fmoc-PAL-PEG-PS; HATU/DIPEA. Conditions: conjugation step.

In turn, Ac-ELDKWAC-NH2 gave a conjugation yield of 91%. As for Ac-CELDKWA-NH2, the figure is 88%.

The record behind these values is patent US7524821B2 (priority 2002, dated 2009).
